Results taken from the supplement of paper PMC12823440, “Inhibitors supercharge kinase turnover through native proteolytic circuits” (Nature, 2025).
Structures can show the parent of a compound that is named as a salt. The list shows a part of the results. The calls rarely recur for the same compound in another form.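 Kinases were expressed as nanoluciferase fusions in K562 cells and luminescence was read every 4 h between 2 and 18 h as percent of control, DMSO set to 100% and a positive control to 0%. A time point counts as decreased when the signal drops significantly (2 sigma). The hit call is the authors' own, does not follow from the count of time points alone, and its rule is not shown.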

Sequences of proteins named here, by UniProt entry; tags and fusion partners are left off. A change or cut given only in a name is not applied to a line headed by its entry.
UniProt Q9Y616: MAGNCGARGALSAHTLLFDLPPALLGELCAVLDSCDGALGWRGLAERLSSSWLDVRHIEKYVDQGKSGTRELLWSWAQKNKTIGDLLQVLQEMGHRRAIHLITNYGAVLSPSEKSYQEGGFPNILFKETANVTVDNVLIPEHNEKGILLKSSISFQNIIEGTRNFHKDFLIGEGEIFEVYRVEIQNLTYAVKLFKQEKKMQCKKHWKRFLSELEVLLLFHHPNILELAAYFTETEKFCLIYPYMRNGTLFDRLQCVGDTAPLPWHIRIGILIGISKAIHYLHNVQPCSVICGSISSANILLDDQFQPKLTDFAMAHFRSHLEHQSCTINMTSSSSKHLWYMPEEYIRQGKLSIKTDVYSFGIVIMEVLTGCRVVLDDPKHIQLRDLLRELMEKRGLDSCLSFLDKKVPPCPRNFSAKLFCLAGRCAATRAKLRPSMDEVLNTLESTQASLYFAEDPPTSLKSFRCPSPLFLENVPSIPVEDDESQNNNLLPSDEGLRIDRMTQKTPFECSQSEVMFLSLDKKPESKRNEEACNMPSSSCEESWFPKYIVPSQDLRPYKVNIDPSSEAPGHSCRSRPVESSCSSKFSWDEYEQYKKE
UniProt P23458: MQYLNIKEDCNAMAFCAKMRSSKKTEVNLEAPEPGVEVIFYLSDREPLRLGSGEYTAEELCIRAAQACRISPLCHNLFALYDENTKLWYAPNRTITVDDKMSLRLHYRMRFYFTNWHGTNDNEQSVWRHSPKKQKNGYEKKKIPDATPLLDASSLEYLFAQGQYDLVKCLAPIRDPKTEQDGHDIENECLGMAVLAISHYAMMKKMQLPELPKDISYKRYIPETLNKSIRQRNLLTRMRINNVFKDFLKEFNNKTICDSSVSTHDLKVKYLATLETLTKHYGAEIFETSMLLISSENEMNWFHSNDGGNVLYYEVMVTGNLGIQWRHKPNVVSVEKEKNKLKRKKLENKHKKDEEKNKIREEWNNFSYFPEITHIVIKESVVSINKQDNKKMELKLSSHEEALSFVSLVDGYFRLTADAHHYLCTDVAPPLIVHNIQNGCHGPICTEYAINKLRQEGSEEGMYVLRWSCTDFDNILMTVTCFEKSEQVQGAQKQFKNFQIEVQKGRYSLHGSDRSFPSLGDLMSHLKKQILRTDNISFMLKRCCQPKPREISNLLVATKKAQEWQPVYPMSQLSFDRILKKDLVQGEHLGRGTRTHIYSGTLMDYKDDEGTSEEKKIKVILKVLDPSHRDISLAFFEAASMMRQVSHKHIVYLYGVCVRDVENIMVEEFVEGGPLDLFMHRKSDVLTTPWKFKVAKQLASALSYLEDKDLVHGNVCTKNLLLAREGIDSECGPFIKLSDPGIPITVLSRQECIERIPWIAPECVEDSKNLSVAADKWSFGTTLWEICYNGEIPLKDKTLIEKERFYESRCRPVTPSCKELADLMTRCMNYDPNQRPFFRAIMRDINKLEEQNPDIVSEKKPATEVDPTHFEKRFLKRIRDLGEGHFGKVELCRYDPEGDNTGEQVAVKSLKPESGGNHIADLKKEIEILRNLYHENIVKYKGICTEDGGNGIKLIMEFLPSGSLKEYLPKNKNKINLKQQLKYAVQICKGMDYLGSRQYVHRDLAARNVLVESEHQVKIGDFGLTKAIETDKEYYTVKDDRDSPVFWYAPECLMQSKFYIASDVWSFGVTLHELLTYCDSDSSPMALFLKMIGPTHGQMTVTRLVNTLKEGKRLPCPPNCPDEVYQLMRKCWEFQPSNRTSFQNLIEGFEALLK
UniProt P06239: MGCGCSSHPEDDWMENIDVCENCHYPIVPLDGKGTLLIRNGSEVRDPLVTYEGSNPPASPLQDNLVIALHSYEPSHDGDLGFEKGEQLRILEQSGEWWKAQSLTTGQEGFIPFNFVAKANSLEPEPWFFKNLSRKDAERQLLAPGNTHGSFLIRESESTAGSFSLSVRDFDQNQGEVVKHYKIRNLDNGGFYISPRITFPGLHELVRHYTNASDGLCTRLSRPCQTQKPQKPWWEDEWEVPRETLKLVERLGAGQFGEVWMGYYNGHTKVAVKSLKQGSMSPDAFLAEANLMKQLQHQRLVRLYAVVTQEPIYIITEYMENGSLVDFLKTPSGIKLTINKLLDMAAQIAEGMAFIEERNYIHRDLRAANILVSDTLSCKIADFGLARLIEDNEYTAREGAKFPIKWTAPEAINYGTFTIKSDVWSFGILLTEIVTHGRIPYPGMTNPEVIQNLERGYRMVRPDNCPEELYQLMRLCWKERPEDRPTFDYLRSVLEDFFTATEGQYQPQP
UniProt P53667: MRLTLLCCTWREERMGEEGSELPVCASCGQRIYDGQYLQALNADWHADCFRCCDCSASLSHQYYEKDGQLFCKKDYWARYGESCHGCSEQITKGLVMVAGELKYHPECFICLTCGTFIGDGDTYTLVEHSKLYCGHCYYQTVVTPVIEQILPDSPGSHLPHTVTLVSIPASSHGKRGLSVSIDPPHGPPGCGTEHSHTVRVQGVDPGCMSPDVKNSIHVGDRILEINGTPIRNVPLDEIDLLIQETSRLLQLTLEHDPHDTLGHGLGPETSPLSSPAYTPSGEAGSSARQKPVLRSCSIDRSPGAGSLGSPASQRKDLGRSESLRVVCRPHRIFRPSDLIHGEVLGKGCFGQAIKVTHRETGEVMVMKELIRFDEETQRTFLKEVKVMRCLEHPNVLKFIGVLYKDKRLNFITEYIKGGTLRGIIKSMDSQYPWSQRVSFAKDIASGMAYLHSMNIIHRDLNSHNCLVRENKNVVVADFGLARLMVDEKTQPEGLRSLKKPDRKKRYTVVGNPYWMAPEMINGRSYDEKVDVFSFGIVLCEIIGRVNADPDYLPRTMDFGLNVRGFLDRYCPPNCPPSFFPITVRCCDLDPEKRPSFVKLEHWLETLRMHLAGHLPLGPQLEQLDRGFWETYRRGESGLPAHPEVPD
UniProt P53671: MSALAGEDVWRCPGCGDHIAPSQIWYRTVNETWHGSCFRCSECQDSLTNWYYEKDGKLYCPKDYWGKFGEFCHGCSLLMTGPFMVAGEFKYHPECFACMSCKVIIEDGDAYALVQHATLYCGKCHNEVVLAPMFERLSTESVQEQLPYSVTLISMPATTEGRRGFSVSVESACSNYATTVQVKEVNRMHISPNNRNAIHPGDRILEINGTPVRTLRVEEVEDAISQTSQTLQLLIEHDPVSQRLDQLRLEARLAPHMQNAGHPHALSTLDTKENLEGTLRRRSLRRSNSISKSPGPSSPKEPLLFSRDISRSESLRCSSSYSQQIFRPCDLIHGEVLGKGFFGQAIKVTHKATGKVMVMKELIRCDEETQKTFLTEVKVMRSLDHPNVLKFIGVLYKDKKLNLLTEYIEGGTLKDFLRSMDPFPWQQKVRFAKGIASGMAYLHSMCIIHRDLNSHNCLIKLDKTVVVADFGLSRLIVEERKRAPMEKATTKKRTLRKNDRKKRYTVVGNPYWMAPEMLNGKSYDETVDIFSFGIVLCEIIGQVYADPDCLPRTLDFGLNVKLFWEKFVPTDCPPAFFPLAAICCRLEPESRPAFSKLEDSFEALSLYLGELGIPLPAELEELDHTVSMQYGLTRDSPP
UniProt Q8IWU2: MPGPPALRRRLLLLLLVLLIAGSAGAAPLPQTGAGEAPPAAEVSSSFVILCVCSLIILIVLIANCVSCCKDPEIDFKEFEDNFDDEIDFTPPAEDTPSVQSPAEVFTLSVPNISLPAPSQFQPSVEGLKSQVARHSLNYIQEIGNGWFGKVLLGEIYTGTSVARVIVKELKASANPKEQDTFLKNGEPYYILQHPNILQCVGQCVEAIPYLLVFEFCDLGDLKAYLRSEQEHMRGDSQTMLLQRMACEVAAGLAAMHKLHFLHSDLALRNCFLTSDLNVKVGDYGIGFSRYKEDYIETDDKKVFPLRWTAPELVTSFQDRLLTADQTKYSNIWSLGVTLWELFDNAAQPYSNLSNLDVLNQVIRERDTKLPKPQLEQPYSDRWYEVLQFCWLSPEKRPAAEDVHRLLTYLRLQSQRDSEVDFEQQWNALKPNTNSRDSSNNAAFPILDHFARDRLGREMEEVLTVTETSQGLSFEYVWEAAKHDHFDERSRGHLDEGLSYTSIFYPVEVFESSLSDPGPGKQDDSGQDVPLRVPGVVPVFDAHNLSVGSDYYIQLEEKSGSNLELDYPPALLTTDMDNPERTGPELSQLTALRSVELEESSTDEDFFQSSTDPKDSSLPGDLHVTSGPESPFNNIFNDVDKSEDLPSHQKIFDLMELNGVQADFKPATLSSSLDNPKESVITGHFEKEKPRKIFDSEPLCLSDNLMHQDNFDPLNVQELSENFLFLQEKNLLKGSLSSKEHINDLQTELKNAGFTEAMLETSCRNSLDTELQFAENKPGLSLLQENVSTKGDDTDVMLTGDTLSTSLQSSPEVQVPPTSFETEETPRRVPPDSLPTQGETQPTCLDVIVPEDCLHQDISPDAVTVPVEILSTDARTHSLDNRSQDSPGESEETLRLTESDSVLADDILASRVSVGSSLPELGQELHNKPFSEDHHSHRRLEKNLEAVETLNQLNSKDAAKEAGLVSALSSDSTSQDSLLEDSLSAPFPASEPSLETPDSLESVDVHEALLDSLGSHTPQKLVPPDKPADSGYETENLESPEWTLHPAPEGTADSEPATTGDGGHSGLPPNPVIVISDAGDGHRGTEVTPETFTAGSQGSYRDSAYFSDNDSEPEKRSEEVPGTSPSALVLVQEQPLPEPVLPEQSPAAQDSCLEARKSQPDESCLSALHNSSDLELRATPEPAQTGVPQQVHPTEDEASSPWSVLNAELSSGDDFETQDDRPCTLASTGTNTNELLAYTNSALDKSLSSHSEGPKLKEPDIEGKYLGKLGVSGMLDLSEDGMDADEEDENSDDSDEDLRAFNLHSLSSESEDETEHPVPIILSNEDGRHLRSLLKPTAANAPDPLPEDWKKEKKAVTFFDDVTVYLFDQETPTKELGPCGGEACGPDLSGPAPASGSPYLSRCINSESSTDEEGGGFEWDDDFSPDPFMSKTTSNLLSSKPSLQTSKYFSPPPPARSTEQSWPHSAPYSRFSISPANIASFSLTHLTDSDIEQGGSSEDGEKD
UniProt P07948: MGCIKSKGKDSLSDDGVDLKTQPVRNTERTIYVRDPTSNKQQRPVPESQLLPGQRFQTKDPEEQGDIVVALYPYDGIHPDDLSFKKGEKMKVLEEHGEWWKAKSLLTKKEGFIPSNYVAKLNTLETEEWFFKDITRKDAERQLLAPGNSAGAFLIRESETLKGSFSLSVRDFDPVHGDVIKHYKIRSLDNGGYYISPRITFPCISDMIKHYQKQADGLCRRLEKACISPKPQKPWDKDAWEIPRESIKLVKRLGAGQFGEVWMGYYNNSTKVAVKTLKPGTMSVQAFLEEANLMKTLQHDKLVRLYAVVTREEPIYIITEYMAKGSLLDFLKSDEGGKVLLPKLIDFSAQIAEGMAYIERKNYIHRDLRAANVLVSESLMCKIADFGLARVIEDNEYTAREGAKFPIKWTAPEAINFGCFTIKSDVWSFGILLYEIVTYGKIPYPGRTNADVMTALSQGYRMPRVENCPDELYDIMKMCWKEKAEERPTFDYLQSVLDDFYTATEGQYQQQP
UniProt Q12851: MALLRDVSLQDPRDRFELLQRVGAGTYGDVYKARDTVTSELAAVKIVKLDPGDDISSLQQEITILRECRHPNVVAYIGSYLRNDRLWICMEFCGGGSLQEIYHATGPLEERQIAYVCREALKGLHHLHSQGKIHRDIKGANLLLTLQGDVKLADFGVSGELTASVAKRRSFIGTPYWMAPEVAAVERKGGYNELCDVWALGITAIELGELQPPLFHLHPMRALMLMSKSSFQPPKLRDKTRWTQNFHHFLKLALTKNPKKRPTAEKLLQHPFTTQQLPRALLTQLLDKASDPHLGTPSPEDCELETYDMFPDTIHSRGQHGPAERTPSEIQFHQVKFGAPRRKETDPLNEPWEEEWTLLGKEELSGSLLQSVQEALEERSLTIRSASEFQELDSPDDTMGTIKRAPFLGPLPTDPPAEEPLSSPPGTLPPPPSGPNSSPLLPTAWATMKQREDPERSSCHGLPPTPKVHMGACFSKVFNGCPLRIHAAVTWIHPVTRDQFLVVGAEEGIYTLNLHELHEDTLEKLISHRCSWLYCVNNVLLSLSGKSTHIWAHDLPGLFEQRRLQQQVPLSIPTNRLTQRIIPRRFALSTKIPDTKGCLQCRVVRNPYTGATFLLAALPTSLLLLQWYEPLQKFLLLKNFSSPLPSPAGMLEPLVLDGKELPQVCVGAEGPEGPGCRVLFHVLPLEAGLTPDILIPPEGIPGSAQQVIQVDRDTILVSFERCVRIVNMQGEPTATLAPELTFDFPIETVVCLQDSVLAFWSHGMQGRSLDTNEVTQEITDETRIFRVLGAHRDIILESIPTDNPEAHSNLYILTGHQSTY

Key:
Assay in all cases: kinase-Nluc reporter destabilization hit call (1 = scored as downregulated) (binary); higher = compound decreases kinase abundance
Conditions in all cases: K562; 2-18 h
IRAK3 = IRAK3 (UniProt Q9Y616)
JAK1 = JAK1 (UniProt P23458)
LCK = LCK (UniProt P06239)
LIMK1 = LIMK1 (UniProt P53667)
LIMK2 = LIMK2 (UniProt P53671)
LMTK2 = LMTK2 (UniProt Q8IWU2)
LYN = LYN (UniProt P07948)
MAP2K1 = MAP2K1 (UniProt Q02750)
MAP2K2 = MAP2K2 (UniProt P36507)
MAP4K2 = MAP4K2 (UniProt Q12851)

Measured: kinase-Nluc reporter destabilization hit call

CC(C)=CCC[C@](C)(O[C@@H]1O[C@H](CO)[C@@H](O)[C@H](O)[C@H]1O)[C@H]1CC[C@]2(C)[C@@H]1[C@H](O)C[C@@H]1[C@@]3(C)CC[C@H](O)C(C)(C)[C@@H]3[C@@H](O[C@@H]3O[C@H](CO)[C@@H](O)[C@H](O)[C@H]3O[C@@H]3O[C@@H](C)[C@H](O)[C@@H](O)[C@H]3O)C[C@]12C [Ginsenoside Re] (10 µM)
inactive: IRAK3 = 0 | JAK1 = 0 | LCK 0 | LIMK1 = 0 | LIMK2 = 0 | LMTK2 = 0 | LYN 0 | MAP2K1 = 0 | MAP2K2 = 0 | MAP4K2 = 0

C[C@]1(O)CCC[C@@H]1n1c(=O)c(C(F)F)cc2cnc(NC3CCN(S(C)(=O)=O)CC3)nc21 (10 µM)
inactive: IRAK3 = 0 | JAK1 = 0 | LCK 0 | LIMK1 = 0 | LIMK2 = 0 | LMTK2 = 0 | LYN 0 | MAP2K1 = 0 | MAP2K2 = 0 | MAP4K2 = 0

CC(C)CC1(O)CCN(C(=O)c2ccc(NS(=O)(=O)c3cccc4nccnc34)cc2)CC1 (10 µM)
inactive: IRAK3 = 0 | JAK1 = 0 | LCK 0 | LIMK1 = 0 | LIMK2 = 0 | LMTK2 = 0 | LYN 0 | MAP2K1 = 0 | MAP2K2 = 0 | MAP4K2 = 0

COc1ccc([C@@H]2CC(=O)c3c(O)cc(O)cc3O2)cc1O [Hesperetin] (10 µM)
inactive: IRAK3 = 0 | JAK1 = 0 | LCK 0 | LIMK1 = 0 | LIMK2 = 0 | LMTK2 = 0 | LYN 0 | MAP2K1 = 0 | MAP2K2 = 0 | MAP4K2 = 0

C=C(C)C(=O)Nc1cccc(-c2ncnc3[nH]cc(C(=O)OCC)c23)c1 (10 µM)
inactive: IRAK3 = 0 | JAK1 = 0 | LCK 0 | LIMK1 = 0 | LIMK2 = 0 | LMTK2 = 0 | LYN 0 | MAP2K1 = 0 | MAP2K2 = 0 | MAP4K2 = 0

O=C(Nc1cc(Oc2cc(F)c(NC(=O)C3(C(=O)Nc4ccc(F)cc4)CC3)cc2F)ccn1)C1CC1 [Altiratinib] (10 µM)
inactive: IRAK3 = 0 | JAK1 = 0 | LCK 0 | LIMK1 = 0 | LIMK2 = 0 | LMTK2 = 0 | LYN 0 | MAP2K1 = 0 | MAP2K2 = 0 | MAP4K2 = 0

CCN(CC)c1ccc2cc(C(=O)N3CCN(C(=O)C4=Cc5c(Br)cccc5S4(=O)=O)CC3)c(=O)oc2c1 (2 µM)
inactive: IRAK3 = 0 | JAK1 = 0 | LCK 0 | LIMK1 = 0 | LIMK2 = 0 | LMTK2 = 0 | LYN 0 | MAP2K1 = 0 | MAP2K2 = 0 | MAP4K2 = 0

COc1ncc(-c2nc(N3CCOCC3)nc3c(CN4CCC(C(C)(C)O)CC4)cc(F)cc23)cc1NS(C)(=O)=O [Linperlisib] (10 µM)
inactive: IRAK3 = 0 | JAK1 = 0 | LCK 0 | LIMK1 = 0 | LIMK2 = 0 | LMTK2 = 0 | LYN 0 | MAP2K1 = 0 | MAP2K2 = 0 | MAP4K2 = 0

Cc1cc(Nc2nc(N[C@@H](C)c3ccc(F)cc3)c(C#N)cc2F)n[nH]1 (10 µM)
inactive: IRAK3 = 0 | JAK1 = 0 | LCK 0 | LIMK1 = 0 | LIMK2 = 0 | LMTK2 = 0 | LYN 0 | MAP2K1 = 0 | MAP2K2 = 0 | MAP4K2 = 0

Fc1ccc(-c2nc(-c3c(F)cccc3F)[nH]c2-c2ccncc2)cc1 (10 µM)
inactive: IRAK3 = 0 | JAK1 = 0 | LCK 0 | LIMK1 = 0 | LIMK2 = 0 | LMTK2 = 0 | LYN 0 | MAP2K1 = 0 | MAP2K2 = 0 | MAP4K2 = 0

O=C(CNC(=O)c1ccc(-c2ccccc2)cc1)NC1CCCc2ccccc21 (stereo not given) [TAO Kinase inhibitor 1] (10 µM)
inactive: IRAK3 = 0 | JAK1 = 0 | LCK 0 | LIMK1 = 0 | LIMK2 = 0 | LMTK2 = 0 | LYN 0 | MAP2K1 = 0 | MAP2K2 = 0 | MAP4K2 = 0

COc1cc(N2CCN(C)CC2)ccc1Nc1ncc2c(n1)N(C1CCC1)C(=O)N(c1c(C)cccc1C)C2 (2.5 µM)
inactive: IRAK3 = 0 | JAK1 = 0 | LCK 0 | LIMK1 = 0 | LIMK2 = 0 | LMTK2 = 0 | LYN 0 | MAP2K1 = 0 | MAP2K2 = 0 | MAP4K2 = 0

CC/C=C\C/C=C\C/C=C\CCCCCCCC(=O)O [α-Linolenic acid] (10 µM)
inactive: IRAK3 = 0 | JAK1 = 0 | LCK 0 | LIMK1 = 0 | LIMK2 = 0 | LMTK2 = 0 | LYN 0 | MAP2K1 = 0 | MAP2K2 = 0 | MAP4K2 = 0

CNc1nc(Nc2cnn(C3CCN(C4COC4)CC3F)c2Cl)ncc1C(F)(F)F (stereo not given) (10 µM)
inactive: IRAK3 = 0 | JAK1 = 0 | LCK 0 | LIMK1 = 0 | LIMK2 = 0 | LMTK2 = 0 | LYN 0 | MAP2K1 = 0 | MAP2K2 = 0 | MAP4K2 = 0

N#CC(c1ccnc(NCCc2cccnc2)n1)c1nc2ccccc2s1 (stereo not given) (10 µM)
inactive: IRAK3 = 0 | JAK1 = 0 | LCK 0 | LIMK1 = 0 | LIMK2 = 0 | LMTK2 = 0 | LYN 0 | MAP2K1 = 0 | MAP2K2 = 0 | MAP4K2 = 0

O=C(NCCO)c1ccc2c(c1)nc(Nc1cccc(Cl)c1)c1ccncc12 [CK2 inhibitor 2] (10 µM)
inactive: IRAK3 = 0 | JAK1 = 0 | LCK 0 | LIMK1 = 0 | LIMK2 = 0 | LMTK2 = 0 | LYN 0 | MAP2K1 = 0 | MAP2K2 = 0 | MAP4K2 = 0

Three entries already listed, ordered by molecular weight, largest number first:
COc1cc(N2CCN(C)CC2)ccc1Nc1ncc2c(n1)N(C1CCC1)C(=O)N(c1c(C)cccc1C)C2 (2.5 µM)
inactive: IRAK3 = 0 | JAK1 = 0 | LCK 0 | LIMK1 = 0 | LIMK2 = 0 | LMTK2 = 0 | LYN 0 | MAP2K1 = 0 | MAP2K2 = 0 | MAP4K2 = 0

O=C(NCCO)c1ccc2c(c1)nc(Nc1cccc(Cl)c1)c1ccncc12 [CK2 inhibitor 2] (10 µM)
inactive: IRAK3 = 0 | JAK1 = 0 | LCK 0 | LIMK1 = 0 | LIMK2 = 0 | LMTK2 = 0 | LYN 0 | MAP2K1 = 0 | MAP2K2 = 0 | MAP4K2 = 0

N#CC(c1ccnc(NCCc2cccnc2)n1)c1nc2ccccc2s1 (stereo not given) (10 µM)
inactive: IRAK3 = 0 | JAK1 = 0 | LCK 0 | LIMK1 = 0 | LIMK2 = 0 | LMTK2 = 0 | LYN 0 | MAP2K1 = 0 | MAP2K2 = 0 | MAP4K2 = 0

More records.

O=C(Nc1cccnc1)c1cc(C(=O)c2c(F)cccc2Br)c[nH]1 (10 µM)
inactive: IRAK3 = 0 | JAK1 = 0 | LCK 0 | LIMK1 = 0 | LIMK2 = 0 | LMTK2 = 0 | LYN 0 | MAP2K1 = 0 | MAP2K2 = 0 | MAP4K2 = 0

Nc1ncnc2c1c(-c1ccc(Oc3ccccc3)cc1)nn2C1CCCNC1 (racemic) (2.5 µM)
inactive: IRAK3 = 0 | JAK1 = 0 | LCK 0 | LIMK1 = 0 | LIMK2 = 0 | LMTK2 = 0 | LYN 0 | MAP2K1 = 0 | MAP2K2 = 0 | MAP4K2 = 0

O=C1c2ccc(Nc3ccc(F)cc3F)cc2CCc2ccc(OC[C@H](O)CO)cc21 [Skepinone-L] (2.5 µM)
inactive: IRAK3 = 0 | JAK1 = 0 | LCK 0 | LIMK1 = 0 | LIMK2 = 0 | LMTK2 = 0 | LYN 0 | MAP2K1 = 0 | MAP2K2 = 0 | MAP4K2 = 0

O=C(O)CCc1ccc(O)c(O)c1 [Dihydrocaffeic acid] (10 µM)
inactive: IRAK3 = 0 | JAK1 = 0 | LCK 0 | LIMK1 = 0 | LIMK2 = 0 | LMTK2 = 0 | LYN 0 | MAP2K1 = 0 | MAP2K2 = 0 | MAP4K2 = 0

CCOc1ccc(C(=O)Nc2ncc([N+](=O)[O-])s2)cc1 (10 µM)
inactive: IRAK3 = 0 | JAK1 = 0 | LCK 0 | LIMK1 = 0 | LIMK2 = 0 | LMTK2 = 0 | LYN 0 | MAP2K1 = 0 | MAP2K2 = 0 | MAP4K2 = 0

O=C(NC(NC(=S)Nc1ccc(F)c([N+](=O)[O-])c1)C(Cl)(Cl)Cl)C(c1ccccc1)c1ccccc1 (stereo not given) (10 µM)
inactive: IRAK3 = 0 | JAK1 = 0 | LCK 0 | LIMK1 = 0 | LIMK2 = 0 | LMTK2 = 0 | LYN 0 | MAP2K1 = 0 | MAP2K2 = 0 | MAP4K2 = 0

COc1ccc([C@H]2c3[nH]c4ccc(Cl)cc4c3CCN2C(=O)Oc2ccc(Cl)cc2)cc1 (2.5 µM)
inactive: IRAK3 = 0 | JAK1 = 0 | LCK 0 | LIMK1 = 0 | LIMK2 = 0 | LMTK2 = 0 | LYN 0 | MAP2K1 = 0 | MAP2K2 = 0 | MAP4K2 = 0

Nc1nccc(Oc2ccc(NC(=O)c3cn(COP(=O)(O)O)cc(-c4ccc(F)cc4)c3=O)cc2F)c1Cl (10 µM)
inactive: IRAK3 = 0 | JAK1 = 0 | LCK 0 | LIMK1 = 0 | LIMK2 = 0 | LMTK2 = 0 | LYN 0 | MAP2K1 = 0 | MAP2K2 = 0 | MAP4K2 = 0

CCn1c(-c2nonc2N)nc2cnc(Oc3cccc(NC(=O)c4ccc(OCCN5CCOCC5)cc4)c3)cc21 (10 µM)
inactive: IRAK3 = 0 | JAK1 = 0 | LCK 0 | LIMK1 = 0 | LIMK2 = 0 | LMTK2 = 0 | LYN 0 | MAP2K1 = 0 | MAP2K2 = 0 | MAP4K2 = 0

C[C@@H]1O[C@@H](O[C@H]2[C@H](Oc3cc(O)c4c(=O)cc(-c5ccc(O)cc5)oc4c3)O[C@H](CO)[C@@H](O)[C@@H]2O)[C@H](O)[C@H](O)[C@H]1O [Rhoifolin] (10 µM)
inactive: IRAK3 = 0 | JAK1 = 0 | LCK 0 | LIMK1 = 0 | LIMK2 = 0 | LMTK2 = 0 | LYN 0 | MAP2K1 = 0 | MAP2K2 = 0 | MAP4K2 = 0

COc1cc([N+](=O)[O-])ccc1S(=O)(=O)N1C[C@@H](CN2CCN(c3ccccn3)CC2)[C@H](c2cccc(F)c2)C1 (relative stereo) (10 µM)
inactive: IRAK3 = 0 | JAK1 = 0 | LCK 0 | LIMK1 = 0 | LIMK2 = 0 | LMTK2 = 0 | LYN 0 | MAP2K1 = 0 | MAP2K2 = 0 | MAP4K2 = 0

COC1(C(=O)N2Cc3nc(Cl)nc(N[C@H](C)c4cc(N)cc(C(F)(F)F)c4)c3C2)CCOCC1 (10 µM)
inactive: IRAK3 = 0 | JAK1 = 0 | LCK 0 | LIMK1 = 0 | LIMK2 = 0 | LMTK2 = 0 | LYN 0 | MAP2K1 = 0 | MAP2K2 = 0 | MAP4K2 = 0

CC(C)(C)NC(=O)c1cncn1C1CCN(c2ccc(-c3nnc(C(F)(F)F)o3)cn2)CC1 (10 µM)
inactive: IRAK3 = 0 | JAK1 = 0 | LCK 0 | LIMK1 = 0 | LIMK2 = 0 | LMTK2 = 0 | LYN 0 | MAP2K1 = 0 | MAP2K2 = 0 | MAP4K2 = 0

CC(C)CN[C@H]1CS(=O)(=O)C[C@@H]1S(=O)(=O)c1ccc(Cl)cc1 (10 µM)
inactive: IRAK3 = 0 | JAK1 = 0 | LCK 0 | LIMK1 = 0 | LIMK2 = 0 | LMTK2 = 0 | LYN 0 | MAP2K1 = 0 | MAP2K2 = 0 | MAP4K2 = 0

CC(=NNC(=O)c1ccc(C)c(Br)c1)c1ccc(O)cc1O [mTOR inhibitor-1] (2.5 µM)
inactive: IRAK3 = 0 | JAK1 = 0 | LCK 0 | LIMK1 = 0 | LIMK2 = 0 | LMTK2 = 0 | LYN 0 | MAP2K1 = 0 | MAP2K2 = 0 | MAP4K2 = 0

COc1cc(F)c(F)c(Nc2ccc(I)cc2F)c1NS(=O)(=O)C1(C[C@H](O)CO)CC1 [Refametinib] (10 µM)
inactive: IRAK3 = 0 | JAK1 = 0 | LCK 0 | LIMK1 = 0 | LIMK2 = 0 | LMTK2 = 0 | LYN 0 | MAP2K1 = 0 | MAP2K2 = 0 | MAP4K2 = 0

O=C1Nc2nc(-c3c(O)cccc3OCC3CC3)cc([C@@H]3CCCNC3)c2CO1 [Bay 65-1942 (hydrochloride)] (10 µM)
inactive: IRAK3 = 0 | JAK1 = 0 | LCK 0 | LIMK1 = 0 | LIMK2 = 0 | LMTK2 = 0 | LYN 0 | MAP2K1 = 0 | MAP2K2 = 0 | MAP4K2 = 0
